The numbers were not newly measured in publication PMC8245906 (Acta Pharmaceutica Sinica. B, 2021), which cites them from elsewhere.

In general, EC50 refers to the midpoint of the concentration-response curve.

The series has as its system SARS-CoV-2. The note with it: read-out: EC50 against SARS-CoV-2; primary human airway epithelial cells; cited from earlier work.

In the case of `CCC(CC)COC(=O)[C@H](C)N[P@](=O)(OC[C@H]1O[C@@](C#N)(c2ccc3c(N)ncnn23)[C@H](O)[C@@H]1O)Oc1ccccc1` [RDV, Remdesivir], the EC50 is 10 nM.
